Reference: patent publication US20210301026A1 (ULTRAHUMAN TWELVE, published 2021)
Changes are numbered by the printed parent chain. Numbers in names are those of the source. No constants are given. Whether binding was seen depends on the method and setting. Some entries that bind do so weakly or less than the wild type.

Amino acid sequences for entries named in this document (tags omitted). A change or cut given only in a name is not applied to a line headed by its entry. Chains listed by the source or under a name are the forms on record and can include a tag or linker.
rhesus CSF1R, membrane-presented on HEK-293 cells (H9FQ91, form named): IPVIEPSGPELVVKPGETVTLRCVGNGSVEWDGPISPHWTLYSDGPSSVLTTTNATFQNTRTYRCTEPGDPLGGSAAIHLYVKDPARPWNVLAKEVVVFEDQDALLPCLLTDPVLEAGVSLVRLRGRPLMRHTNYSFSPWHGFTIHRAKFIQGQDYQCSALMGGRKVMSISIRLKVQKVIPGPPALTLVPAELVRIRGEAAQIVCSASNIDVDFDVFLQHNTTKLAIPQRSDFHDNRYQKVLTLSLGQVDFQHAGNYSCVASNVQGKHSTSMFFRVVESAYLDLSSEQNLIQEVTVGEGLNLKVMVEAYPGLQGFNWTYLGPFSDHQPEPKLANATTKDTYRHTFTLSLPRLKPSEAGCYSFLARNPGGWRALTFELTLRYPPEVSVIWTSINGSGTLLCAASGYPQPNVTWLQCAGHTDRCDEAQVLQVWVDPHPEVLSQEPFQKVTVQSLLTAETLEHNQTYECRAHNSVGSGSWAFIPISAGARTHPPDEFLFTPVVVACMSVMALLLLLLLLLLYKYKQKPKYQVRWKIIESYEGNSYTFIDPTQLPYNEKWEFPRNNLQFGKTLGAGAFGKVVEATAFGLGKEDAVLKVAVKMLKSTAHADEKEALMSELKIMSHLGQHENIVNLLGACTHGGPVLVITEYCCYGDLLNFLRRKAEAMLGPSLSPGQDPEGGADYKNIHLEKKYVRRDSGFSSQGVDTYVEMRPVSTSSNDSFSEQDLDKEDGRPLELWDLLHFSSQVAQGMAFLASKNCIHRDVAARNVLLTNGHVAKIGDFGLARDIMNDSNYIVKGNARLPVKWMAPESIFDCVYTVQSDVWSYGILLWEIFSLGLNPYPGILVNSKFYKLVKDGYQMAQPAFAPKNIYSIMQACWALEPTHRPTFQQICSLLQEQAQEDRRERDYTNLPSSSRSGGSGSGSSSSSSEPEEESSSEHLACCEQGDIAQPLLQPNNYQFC
UniProt P07333: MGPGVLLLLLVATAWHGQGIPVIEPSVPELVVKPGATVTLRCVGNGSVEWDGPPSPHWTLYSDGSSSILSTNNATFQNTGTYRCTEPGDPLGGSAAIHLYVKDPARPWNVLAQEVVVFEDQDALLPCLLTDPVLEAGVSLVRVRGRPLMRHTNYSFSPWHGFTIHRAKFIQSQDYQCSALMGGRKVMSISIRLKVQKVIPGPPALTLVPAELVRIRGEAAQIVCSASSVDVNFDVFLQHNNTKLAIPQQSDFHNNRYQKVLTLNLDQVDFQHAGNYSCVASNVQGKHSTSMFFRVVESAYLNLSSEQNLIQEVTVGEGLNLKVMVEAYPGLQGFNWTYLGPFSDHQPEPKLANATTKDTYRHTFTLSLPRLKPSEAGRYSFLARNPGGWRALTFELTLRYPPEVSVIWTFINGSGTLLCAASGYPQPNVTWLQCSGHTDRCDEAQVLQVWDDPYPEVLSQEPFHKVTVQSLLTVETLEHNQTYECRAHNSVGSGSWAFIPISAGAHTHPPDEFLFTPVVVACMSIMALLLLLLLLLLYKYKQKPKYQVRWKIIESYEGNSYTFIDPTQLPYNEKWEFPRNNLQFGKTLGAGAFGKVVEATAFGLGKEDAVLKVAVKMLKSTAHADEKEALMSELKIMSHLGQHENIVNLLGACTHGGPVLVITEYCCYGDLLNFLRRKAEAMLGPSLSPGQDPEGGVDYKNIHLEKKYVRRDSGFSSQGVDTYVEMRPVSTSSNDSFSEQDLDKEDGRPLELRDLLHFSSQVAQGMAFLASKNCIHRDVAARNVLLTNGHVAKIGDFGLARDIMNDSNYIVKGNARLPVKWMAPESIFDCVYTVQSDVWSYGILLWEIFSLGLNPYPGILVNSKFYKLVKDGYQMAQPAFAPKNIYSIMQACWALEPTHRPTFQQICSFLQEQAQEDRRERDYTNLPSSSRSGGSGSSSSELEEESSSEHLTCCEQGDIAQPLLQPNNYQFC

B1: MH1 (antibody, V domains shown)
VH: QVQLVQSGAEVKKPGSSVKVSCKASGGTFSSYYIIWVRQAPGQGLEWMGDINPYNGTANYAQKFQGRVTITADESTSTAYMELSSLRSEDTAVYYCAREGPYFSNLYVMDYWGQGTLVTVSS
VL: EIVLTQSPATLSLSPGERATLSCRASQSVSYQGENYLAWYQQKPGQAPRLLIYDASNRATGIPARFSGSGSGTDFTLTISSLEPEDFAVYYCQLSNQDLLTFGGGTKVEIK
B2: MH3 (antibody, V domains shown)
VH: B1 VH
VL: B1 VL with Q32E, D54A
B3: MH6 (antibody, V domains shown)
VH: B1 VH with G27Y, I34M, T57G
VL: B1 VL with Q32E, D54A
notes: Designer clone, human IgG4(S228P)/Ckappa IgG
B4: MH9 (antibody, V domains shown)
VH: B1 VH with G27Y
VL: B1 VL with Q32E, D54A
notes: as for B3
B5: MH7 (antibody, V domains shown)
VH: B1 VH with G27Y
VL: B1 VL
B6: MH8 (antibody, V domains shown)
VH: B1 VH with G27Y
VL: B1 VL with Q32E, A38N, D54A, L82P, Q97E
B7: MH2 (antibody, V domains shown)
VH: B1 VH
VL: B1 VL with Q32E, A38N, D54A, L82P, Q97E
B8: humanized anti-CSF1R antibody 0301 (hu0301) (antibody, human IgG4, V domains shown)
VH: QVQLVQSGAEVKKPGSSVKVSCKASGYTFTDNYMIWVRQAPGQGLEWMGDINPYNGGTTFNQKFKGRVTITADKSTSTAYMELSSLRSEDTAVYYCARESPYFSNLYVMDYWGQGTLVTVSS
VL: EIVLTQSPATLSLSPGERATLSCKASQSVDYDGDNYMNWYQQKPGQAPRLLIYAASNLESGIPARFSGSGSGTDFTLTISSLEPEDFAVYYCHLSNEDLSTFGGGTKVEIK
notes: also called mAb-1
B9: MH5 (antibody, human IgG4, V domains shown)
VH: B1 VH with G27Y, I34M, T57G
VL: B1 VL with Q32E, A38N, D54A, L82P, Q97E
notes: Designer (maximally humanized) clone; tested as human IgG4(S228P)/Ckappa IgG; also called mAb-2
B10: 26B07 (antibody, human IgG4, V domains shown)
VH: B1 VH with G27Y, I34M, T57G
VL: B1 VL with S30E, E34D, A38N, D54A, Q97E
notes: Library-derived clone, tested as human IgG4(S228P)/Ckappa IgG; framework residue limits counted on the grafts
B11: 29A03 (antibody, human IgG4, V domains shown)
VH: B1 VH with G27Y, Y32N, I34M, T57G, N59T, A61N, G100P
VL: B1 VL with S30E, Q32E, A38N, D54A
notes: as for B10
B12: 29B07 (antibody, human IgG4, V domains shown)
VH: B1 VH with G27Y, S30T, T57G, N59T, G100P
VL: B1 VL with S30E, Q32E, E34D, A38N, D54A
notes: as for B10
B13: 29D10 (antibody, human IgG4, V domains shown)
VH: B1 VH with G27Y, S30T, I34M, T57G, Y60F
VL: B1 VL with Q32E, A38N, D54A, Q97E
notes: as for B10
B14: 29H09 (antibody, human IgG4, V domains shown)
VH: B1 VH with G27Y, S30T, I34M, T57G
VL: B1 VL with Q32E, A38N, D54A, Q97E
notes: as for B10
B15: 30D02 (antibody, human IgG4, V domains shown)
VH: B1 VH with G27Y, I34M, T57G, A58T, N59T
VL: B1 VL with S30E, A38N, D54A
notes: as for B10
B16: 30E06 (antibody, human IgG4, V domains shown)
VH: B1 VH with G27Y, S30T, I34M, T57G, A58T, N59T
VL: B1 VL with Q32E, D54A, R58L, Q97E
notes: Library-derived clone; tested as human IgG4(S228P) / human Ckappa IgG; also called 30E6; mAb-3
B17: murine anti-CSF1R antibody 0301 (mu0301), v-domains in human IgG4(S228P) format (antibody, V domains shown)
VH: EVQLQQSGPELVRPGASVKMSCKASGYTFTDNYMIWVKQSHGKSLEWIGDINPYNGGTTFNQKFKGKATLTVEKSSSTAYMQLNSLTSEDSAVYYCARESPYFSNLYVMDYWGQGTSVTVSS
VL: NIVLTQSPASLAVSLGQRATISCKASQSVDYDGDNYMNWYQQKPGQPPKLLIYAASNLESGIPARFSGSGSGTDFTLNIHPVEEEDAATYYCHLSNEDLSTFGGGTKLEIK

These binders were tested against cynomolgus monkey CSF1R human Fc tagged recombinant protein (cynomolgus monkey) (assay: direct titration ELISA on coated cyno CSF1R-Fc, IgG4(S228P) format, OD 450 nm).

binding, binds:
B1, B2, B3, B4, B5, B6, B7

What follows are binders tested against rhesus CSF1R, membrane-presented on HEK-293 cells (rhesus monkey) (UniProt H9FQ91) (assay: flow cytometry, transfected HEK-293 cells).

binding, binds:
B8

The binders below were run against human CSF1R human Fc tagged recombinant protein (human) (UniProt P07333) (assay: direct titration ELISA, IgG4(S228P) on coated CSF1R-Fc).

binding, binds:
B1, B2, B5, B6

These binders were tested against cynomolgus monkey CSF1R human Fc tagged recombinant protein (cynomolgus monkey) in the same assay as above.

binding, binds:
B1, B2, B4, B5, B6, B7

The binders below were run against rhesus CSF1R, membrane-presented on HEK-293 cells (rhesus monkey) (UniProt H9FQ91) (assay: flow cytometry on HEK-293 cells expressing rhesus CSF1R, MFI).

binding, binds:
B9, B10, B11, B12, B13, B14, B15, B16, B3, B17, B8

What follows are binders tested against human CSF1R human Fc tagged recombinant protein (human) (UniProt P07333) (assay: direct titration ELISA on coated human CSF1R-Fc, IgG4(S228P) format, OD 450 nm).

binding, binds:
B1, B2, B3, B5, B6
